Source: PubChem BioAssay AID1159506 (NCATS, 2015).

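Genome-wide siRNA knockdown in TC32 Ewing sarcoma cells, comparing luciferase light from an NR0B1-promoter reporter with a CMV-promoter reporter 48 hours after transfection.
Each siRNA was applied at 20 nM.
A z-score of the log NR0B1-over-CMV signal, less the median of siRNAs with the same seed; more negative means a stronger specific loss of the NR0B1 reporter.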

This is part of the screen; most of the strongest results are not listed here.
Sequences are the guide (antisense) strand, without overhang.

| # | Sequence | gene | seed-corrected z-score |
|---|---|---|---|
| 1 | `UCUCUUCUUUGGUGUCUCC` | DAP | -0.9124 |
| 2 | `UCAGUAUCACCUCCUGUUC` | COL20A1 | 0.4214 |
| 3 | `AUUGGGUUGAUAGAUGCGC` | MLNR | 0.6685 |
| 4 | `UUCUCUGUCUGCUAGUUUC` | EBAG9 | 0.00881 |
| 5 | `UUAGUUAAGUCCUUCACCU` | RAB11FIP3 | -1.058 |
| 6 | `UCUGUCUCCAUAGUCGACG` | TSSK1B | 0.3875 |
| 7 | `UGAAUGAUGACUAACAUCC` | LYSMD3 | 0.4945 |
| 8 | `UUUCGAUCAUCUAGGAGCC` | MACF1 | -0.8792 |
| 9 | `UCAAUGCACACUUGUCUGU` | CXCL12 | 1.279 |
| 10 | `UGCCGUACAAGAUAUACAG` | PIAS2 | 0.0673 |
| 11 | `UAUGGGUUUAUCUACAGAG` | HSF2 | -0.3971 |
| 12 | `UGGUGAUCCAAGGAAUUCC` | GLYAT | -0.6547 |
| 13 | `UGUAGAUAAUCUUUCAGUG` | SLX4IP | 1.053 |
| 14 | `AACUGAAUCAUCUGCAGCC` | NLRP12 | -0.04548 |
| 15 | `UAAGCUGUACACUUACUGG` | ANTXR2 | 0.4779 |
| 16 | `UCGUUCUCCAGCUCGAACU` | CHST12 | -0.4834 |
| 17 | `UUCACUUGGAGCUUUAUGC` | BPIFA1 | 0.07835 |
| 18 | `UUUGUCGAUACGAUCAAUG` | AGPAT5 | -0.3375 |
| 19 | `UAGUCCUUGACUACCCUCG` | MORN5 | -0.3768 |
| 20 | `AUACUUGGAACAUCUGGGC` | ZSWIM1 | -0.3315 |
| 21 | `UAAAGCCCUGGAAUGAAAC` | COA1 | -0.2097 |
| 22 | `AGUAUGUCAAGGAAUUUUC` | ELMOD2 | -0.5777 |
| 23 | `UACAGAAUGAGAGGCGACC` | MFSD2B | 1.274 |
| 24 | `UGACUGUCUAGAUCUCUGA` | LOC100288914 | -0.1281 |
| 25 | `UUCAUCCCAACUGUAGGCU` | RPS17 | 1.028 |
| 26 | `CACAUGUACACAAGGAUGC` | USP41 | 0.6006 |
| 27 | `UUUUAGGCAGCAUACAAAC` | HMCN2 | 0.09683 |
| 28 | `UAAUCGCUCAUUAUUCUCC` | HMBOX1 | 0.4844 |
| 29 | `AUAGUUCUCAAACACUGUG` | RHOA | -0.7127 |
| 30 | `UUGCAGAUGAUCAAGAAUU` | ATP8B5P | 0.1182 |
| 31 | `UCAGUGACAAGGUGAACGG` | TEAD2 | 0.03578 |
| 32 | `UUUUCAAUAUCACAGAUAC` | LPAR1 | -0.07244 |
| 33 | `UCUAUUAUCACCGGGAUUU` | MAP1LC3B | 0.6992 |
| 34 | `ACUGUUGAGAAUGAACUCC` | ACOX1 | 0.4957 |
| 35 | `AAUAGAGAAAGGGUGCGGU` | RUSC1-AS1 | 0.2478 |
| 36 | `UAGUCCAUACAUAUCAGCC` | BTBD8 | 0.01641 |
| 37 | `UUCGAUUUGGUAGUCUUCC` | TTN | -0.2621 |
| 38 | `UCUCUACCAUCGGCCAAAG` | LOC389033 | -0.4086 |
| 39 | `GAACUGGAAACAUCCUUGC` | LOC730668 | 0.09399 |
| 40 | `UCUACAACAAGAGUUGAGU` | NBPF9 | -0.4216 |
| 41 | `UAGAGAUCAAAGGCUCUUC` | ANTXR2 | -0.616 |
| 42 | `AUUGUCUCCAUAAUAGAUG` | C6orf132 | -0.3631 |
| 43 | `AAAGUGUCAUAAGAAAACC` | RNF114 | 0.3573 |
| 44 | `AUCCGUUUUAUUGCUACAC` | STK39 | -0.681 |
| 45 | `UCUUUGUCUCUUUCGAUUG` | PRPF39 | -0.4381 |
| 46 | `UUUGUCGAACGGGUUUUGC` | FZR1 | -0.0463 |
| 47 | `UGAAAGUCAGGCACCGUCG` | SH3GLB2 | -0.5244 |
| 48 | `UUGUGGUUCUGUAGCCUCC` | CHAC2 | -1.188 |
| 49 | `UUGCGGAUCAGAGACAGCU` | CCND2 | -0.601 |
| 50 | `UUGGUCAAAGCAAGUCAGG` | RGS8 | -0.07063 |
| 51 | `UCUGCAACAAUGAAAUACU` | NAA20 | 0.4388 |
| 52 | `UACUUAUCCGAGAUAGUGC` | SIM1 | -0.7039 |
| 53 | `UGACUUUGCAGACGCCUGG` | PGAM5 | -1.96 |
| 54 | `UUCUCGAACUCCGUAGUCC` | MZB1 | 0.1634 |
| 55 | `AAUCUUGAACAUGUAGUCG` | RAB3A | -0.2052 |
| 56 | `AAGGCGAACGACGACUUGC` | ANKRD9 | 0.7798 |
| 57 | `UGUCUUCUUUUCAUCGUCG` | KLHL14 | -0.6674 |
| 58 | `UUCGUUCUCGUAGAUCUUC` | MIER2 | 0.9763 |
| 59 | `UUUUGGGUAAACACGGUAG` | CFAP61 | 0.0413 |
| 60 | `UAUUAGGAUUAUUUCAUCC` | SNX25 | 0.6282 |
| 61 | `ACAGCAUACAGGGCGAUCC` | LRTM2 | 0.1556 |
| 62 | `UUGGGUGACUCUCGGAUCC` | LLGL1 | -0.8952 |
| 63 | `UCCGGGAUAUACUCCAUGC` | ARHGEF10L | 1.469 |

5 of the entries, repeated:

| Sequence | gene | seed-corrected z-score |
|---|---|---|
| `UGACUUUGCAGACGCCUGG` | PGAM5 | -1.96 |
| `UUUUGGGUAAACACGGUAG` | CFAP61 | 0.0413 |
| `UGAAAGUCAGGCACCGUCG` | SH3GLB2 | -0.5244 |
| `UGUCUUCUUUUCAUCGUCG` | KLHL14 | -0.6674 |
| `UAAUCGCUCAUUAUUCUCC` | HMBOX1 | 0.4844 |